No constants are given. Whether binding was seen depends on the method and setting. Some binding calls cover weakened binding; strength is not graded here.

Amino acid sequences for entries named in this document (tags omitted). A change or cut given only in a name is not applied to a line headed by its entry. Chains listed by the source or under a name are the forms on record and can include a tag or linker.
biotin-labeled SIRPα (V2) (Acrobiosystems, Cat. No. SI2-H82W8) (P78324, form named): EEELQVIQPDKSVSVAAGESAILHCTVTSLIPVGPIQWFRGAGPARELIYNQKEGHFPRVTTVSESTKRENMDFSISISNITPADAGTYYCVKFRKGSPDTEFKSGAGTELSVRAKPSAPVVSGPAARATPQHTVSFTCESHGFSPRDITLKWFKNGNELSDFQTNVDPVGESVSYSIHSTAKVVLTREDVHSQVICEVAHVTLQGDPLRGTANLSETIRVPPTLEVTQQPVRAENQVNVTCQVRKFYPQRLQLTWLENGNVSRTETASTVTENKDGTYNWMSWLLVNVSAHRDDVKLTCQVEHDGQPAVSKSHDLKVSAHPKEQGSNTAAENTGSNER
biotin-labeled SIRPα (V8) (Acrobiosystems, Cat. No. SI8-H82W6) (P78324, form named): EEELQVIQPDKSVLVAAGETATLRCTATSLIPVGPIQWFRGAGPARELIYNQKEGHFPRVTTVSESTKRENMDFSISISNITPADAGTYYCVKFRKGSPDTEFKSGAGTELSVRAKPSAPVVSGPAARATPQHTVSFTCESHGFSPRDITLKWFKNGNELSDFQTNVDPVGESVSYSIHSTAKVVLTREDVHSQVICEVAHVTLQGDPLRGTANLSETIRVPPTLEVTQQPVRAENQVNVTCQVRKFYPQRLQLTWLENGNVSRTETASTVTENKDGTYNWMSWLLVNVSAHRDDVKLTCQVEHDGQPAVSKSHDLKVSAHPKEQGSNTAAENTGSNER

Test [1] deals with biotin-labeled SIRPα (V2) (Acrobiosystems, Cat. No. SI2-H82W8) (human) (UniProt P78324). Kind of test: competition ELISA: coated CD47-Fc, biotin-labeled SIRPα (V2) plus antibody dilutions, HRP-streptavidin, OD450.
Test [2] has as its target biotin-labeled SIRPα (V8) (Acrobiosystems, Cat. No. SI8-H82W6) (human) (UniProt P78324). The experiment in a line: competition ELISA: coated CD47-Fc, biotin-labeled SIRPα (V8) plus antibody dilutions, HRP-streptavidin, OD450.

B1: #14 antibody (humanized anti-SIRPα antibody) (antibody, human IgG1, kappa, N297A, V domains shown)
VH: QVQLQESGPGLVKPSQTLSLTCTVSGGSISSGYYWSWIRQHPGKGLEWIGYISYDGSRYNNPSLKNRVTISVDTSKNQFSLKLSSVTAADTAVYYCAREEYANYFAYWGQGTTVTVSS
VL: DIVMTQSPDSLAVSLGERATINCKSSQSLFYSSNQKNFLAWYQQKPGQPPKLLIYWASTRESGVPDRFTGSGSGTDFTLTISSVKAEDLAVYYCQQYYSYPPTFGQGTKLEIKR
Consider B1, for which the binding result in test [1] and in test [2] was “binds” throughout.

The values are drawn from US20240034804A1 (BIORAY PHARMACEUTICAL, published 2024).
